For one molecule, binding results are on record in PMC7048761.

Results are given in words; binding and its absence hold for the method and conditions named. Binding seen in cells or lysates may run through a third protein. Some results given as binding are weak or reduced against the parent protein; the word gives no strength.

For this assay, the target named is T1, SREBP cleavage-activating protein (SCAP) (UniProt Q12770).
T1 sequence: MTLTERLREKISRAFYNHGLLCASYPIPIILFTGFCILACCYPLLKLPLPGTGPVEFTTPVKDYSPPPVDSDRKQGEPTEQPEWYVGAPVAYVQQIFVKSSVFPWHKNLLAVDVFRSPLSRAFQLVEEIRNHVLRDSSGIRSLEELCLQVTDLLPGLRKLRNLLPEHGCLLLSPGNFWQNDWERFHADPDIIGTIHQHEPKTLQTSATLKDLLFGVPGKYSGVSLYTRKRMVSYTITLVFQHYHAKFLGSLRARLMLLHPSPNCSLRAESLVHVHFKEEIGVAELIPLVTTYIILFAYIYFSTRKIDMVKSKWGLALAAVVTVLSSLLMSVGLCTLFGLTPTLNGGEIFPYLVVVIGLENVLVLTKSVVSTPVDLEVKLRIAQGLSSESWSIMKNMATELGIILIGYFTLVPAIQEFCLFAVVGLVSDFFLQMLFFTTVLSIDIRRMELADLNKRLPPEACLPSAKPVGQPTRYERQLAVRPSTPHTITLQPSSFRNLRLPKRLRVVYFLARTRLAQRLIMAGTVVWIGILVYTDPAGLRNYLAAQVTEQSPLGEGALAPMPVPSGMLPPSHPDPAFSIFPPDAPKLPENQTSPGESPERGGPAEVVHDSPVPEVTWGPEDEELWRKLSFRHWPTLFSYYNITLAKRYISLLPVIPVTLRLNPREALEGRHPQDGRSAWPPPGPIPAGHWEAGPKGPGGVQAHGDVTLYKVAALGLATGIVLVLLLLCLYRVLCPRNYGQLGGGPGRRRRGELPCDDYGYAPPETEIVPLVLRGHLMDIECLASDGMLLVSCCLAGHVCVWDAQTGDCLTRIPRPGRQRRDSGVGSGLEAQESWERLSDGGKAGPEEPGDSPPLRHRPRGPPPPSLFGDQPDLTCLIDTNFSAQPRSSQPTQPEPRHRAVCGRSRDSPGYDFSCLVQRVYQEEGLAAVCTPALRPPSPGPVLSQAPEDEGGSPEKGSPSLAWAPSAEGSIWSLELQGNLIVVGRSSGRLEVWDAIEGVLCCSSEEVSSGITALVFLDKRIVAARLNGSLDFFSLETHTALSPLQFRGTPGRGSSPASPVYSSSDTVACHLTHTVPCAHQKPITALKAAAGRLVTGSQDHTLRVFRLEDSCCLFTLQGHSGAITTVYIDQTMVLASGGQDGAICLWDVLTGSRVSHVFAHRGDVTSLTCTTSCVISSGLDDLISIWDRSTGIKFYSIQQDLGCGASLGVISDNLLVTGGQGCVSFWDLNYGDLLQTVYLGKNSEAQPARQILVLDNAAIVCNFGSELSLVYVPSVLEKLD
The experiment in a line: co-IP; HEK293T cells transfected with expression constructs (over-expressed); lysates in NP-40 buffer (150 mM NaCl, 5 mM EDTA, 1% NP-40, 50 mM Tris-HCl, pH 7.4), overnight at 4 °C with antibodies and protein A/G magnetic Dynabeads, three washes with lysis buffer, immunoblot. Background: A western blot detects proteins with antibodies after separation by electrophoresis.

B1: SREBP Regulating Gene SPRING (C12ORF49) (protein, UniProt Q9H741 1-205)
chain: MVNLAAMVWRRLLRKRWVLALVFGLSLVYFLSSTFKQEERAVRDRNLLQVHDHNQPIPWKVQFNLGNSSRPSNQCRNSIQGKHLITDELGYVCERKDLLVNGCCNVNVPSTKQYCCDGCWPNGCCSAYEYCVSCCLQPNKQLLLERFLNRAAVAFQNLFMAVEDHFELCLAKCRTSSQSVQHENTYRDPIAKYCYGESPPELFPA
B1: the binding result was “binds”.
